Measurements: paper PMC3029384, “Dimeric SecA Couples the Preprotein Translocation in an Asymmetric Manner” (PLoS ONE, 2011)

Chains of the proteins cited; added tags and fusions are not shown. Lines headed by an entry give the natural chain unless they say otherwise; changes in a name come on top.
UniProt P10408: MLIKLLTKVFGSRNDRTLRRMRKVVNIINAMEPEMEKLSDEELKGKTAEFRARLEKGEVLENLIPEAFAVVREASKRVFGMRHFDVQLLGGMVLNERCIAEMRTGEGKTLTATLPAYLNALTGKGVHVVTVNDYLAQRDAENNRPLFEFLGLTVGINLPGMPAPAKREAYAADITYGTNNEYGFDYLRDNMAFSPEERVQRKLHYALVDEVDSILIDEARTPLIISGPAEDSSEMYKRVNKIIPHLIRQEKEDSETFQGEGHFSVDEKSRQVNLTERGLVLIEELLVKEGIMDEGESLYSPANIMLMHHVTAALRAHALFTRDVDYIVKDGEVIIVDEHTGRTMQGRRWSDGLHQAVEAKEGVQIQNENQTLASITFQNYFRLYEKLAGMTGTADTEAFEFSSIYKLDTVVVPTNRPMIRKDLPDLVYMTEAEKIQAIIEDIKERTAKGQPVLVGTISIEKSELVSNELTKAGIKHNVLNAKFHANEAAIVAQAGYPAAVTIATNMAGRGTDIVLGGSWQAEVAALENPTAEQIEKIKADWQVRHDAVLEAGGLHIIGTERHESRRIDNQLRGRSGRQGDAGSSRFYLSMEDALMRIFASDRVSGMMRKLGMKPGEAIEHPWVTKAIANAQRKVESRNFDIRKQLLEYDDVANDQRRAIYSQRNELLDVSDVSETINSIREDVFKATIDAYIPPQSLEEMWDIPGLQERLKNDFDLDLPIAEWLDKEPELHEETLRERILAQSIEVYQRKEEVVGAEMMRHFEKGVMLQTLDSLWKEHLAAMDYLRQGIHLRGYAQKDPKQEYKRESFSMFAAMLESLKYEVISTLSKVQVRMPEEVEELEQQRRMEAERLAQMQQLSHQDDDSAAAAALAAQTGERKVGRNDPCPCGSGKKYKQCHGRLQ

Tests used:
His6-tagged SecB [1] = target: T1, His6-tagged SecB (Escherichia coli, UniProt P0AG86 1-153); assay: SEC; SecA monomer 3 uM and SecB monomer 30 uM incubated 1 h at 4 °C in buffer A (20 mM HEPES-KOH, 30 mM KCl, 1 mM DTT, pH 7.4); Superdex G200 analytical column at 4 °C; peak fraction checked by SDS-PAGE; both purified
T1 construct: SecB chaperone, Escherichia coli; The tag is named explicitly only in Materials and for the SecB/proOmpA assembly; also called SecB tetramer; tetrameric SecB
T1 sequence: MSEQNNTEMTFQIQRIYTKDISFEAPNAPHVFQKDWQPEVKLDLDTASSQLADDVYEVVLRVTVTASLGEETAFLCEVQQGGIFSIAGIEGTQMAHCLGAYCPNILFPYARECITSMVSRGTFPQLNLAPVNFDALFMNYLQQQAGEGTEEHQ

His6-tagged SecB [2] = target: T1, His6-tagged SecB; assay: negative-stain electron microscopy, single-particle 3D reconstruction; SecA/proOmpA/SecB complex, 1% uranyl acetate; 24 Å reconstruction from 2,704 particles after multi-model refinement, no symmetry; crystal structures docked into the map; both purified

binding (His6-tagged SecB [1]): binds
binding (His6-tagged SecB [2]): binds
Substance: SecA (from UniProt P10408) (enzyme)

These are yes or no findings as the source states them, for the method shown. Binding can be weak; no strength is given.
